According to PMC6128693:
No constants are given. Whether binding was seen depends on the method and setting. In cells and extracts the contact can be indirect. Here binding means that the protein was enriched with, or labelled near, the bait; the list need not be complete. For some of these results: A no says only that the protein was not detected with the bait. Sequences can lack the tags named with a protein.

Each binder was assayed against T1, SGF11, GS^rhino tag fusion (TAP bait) (Arabidopsis thaliana) (UniProt Q94BV2) (assay: affinity purification with mass spectrometry; tandem affinity purification (TAP) of GS^rhino-tagged bait from Arabidopsis cell suspension cultures (SGF11: dark or light grown; UBP22: light grown), 200 mg total protein extract, LTQ Orbitrap Velos).
T1 sequence: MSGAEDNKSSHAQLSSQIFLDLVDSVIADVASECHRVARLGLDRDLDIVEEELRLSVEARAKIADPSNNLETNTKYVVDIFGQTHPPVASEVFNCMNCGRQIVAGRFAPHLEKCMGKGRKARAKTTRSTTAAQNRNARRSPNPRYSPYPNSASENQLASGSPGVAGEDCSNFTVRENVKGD

Binder	binding
TONNEAU1A (protein, UniProt Q9FQ25 1-260) MDDYTREMMDLKTLVTRTLEKKGVLAKIRAELRASVFEAIEEEDRVIENNEGPPPALLGSCNDRARKLHASPSGRLLSALICEYLDWAQLNHTLIVYQPESNLPKDSWKSELRDFNSNNGFELNRNGDSGPLLLDVLEGFLKFESMTQGMGSSSRRDSETESSSSLESRNPPRRSSASDSLPPQRRPVSASQASDRRAGLSTSGYRKDEFNWRQGNQDTHEEVTRASAALENLQLDRKTRNLTSSWRNVRDGTNEEEGRD	binds
TONNEAU1B (protein, UniProt Q9FQ24 1-257) MDDYTREMMDLKTLVTRTLEKKGVLAKIRAELRASVFEAIEEEDRVIENNEGLPPALLGSCNDRARQLHASPSGRLLSALICEYLDWAQLNHTLKVYQPECNSAKDSWKSEIRDFSINNGYELNRNEDSRPLLLDVLEGFLKFENMTQVMGGSSRRESETESSLSLDTRNPPRRSSASDSLPHQRRSVSASQASGAATSGYRKDESNWRYDTEDMPEEVMRASTALENLQLDRKTRNLTSSWRNVKDGTSEEEEGKD	binds
ENY2 (AT3G27100), endogenous in Arabidopsis cell culture (protein, UniProt Q6NQ54 1-115) MKHSVNRPPTPDEDDVADGFEKDKVTLREIINVKLVESGEKENLMELVRDRLVECGWKDEMRIACREHVKKKGRKDVTVDELIRVITPKGRASVPDSVKAELLNRIQNFIVSAAL	binds
UBP22 (AT5G10790), endogenous in Arabidopsis cell culture (enzyme, UniProt Q9LEW0 1-557) MSARISFLKNPDPCNHLSDYKLRYGTDGYKSFNNLFRCFNDARIKIKLQGIDIPRCSYCSVYQKRLYICLICRSISCSSHILLHTQLNKGHDIAIDVERSELYCCACIDQVYDSEFDEVVVSKQLFGLGMSVKSGADVVAVRSNKKRRLDSQLIIGSNFLVSPRDRREKWTFPLGLRGLNNLGSTCFMNAVLQALVHAPPLRNFWLSGQHNRDLCPRRTMGLLCLPCDLDVIFSAMFSGDRTPYSPAHLLYSWWQHSTNLATYEQQDSHEFFISLLDRIHENEGKSKCLYQDNEECQCITHKAFSGLLRSDVTCTTCGSTSTTYDPFIDISLTLDSMNGFSPADCRKNRYSGGPSVNAIMPTLSGCLDFFTRSEKLGPDQKLNCQSCGEKRESSKQMSIRRLPLLLCLHVKRFEHSLTRKTSRKIDSYLQYPFRLNMSPYLSSSIIGKRFGNRIFAFDGEGEYDSSSSSSPSAEFEIFAVVTHKGMLESGHYVTYLRLKGLWYRCDDAWINEVEEEVVRGCECYMLFYAQETVIQKAHKELSYQVISMADAFPFADC	binds

These binders were tested against T2, UBP22, GS^rhino tag fusion (TAP bait) (Arabidopsis thaliana) (UniProt Q9LEW0) in the same assay as above.
T2 sequence: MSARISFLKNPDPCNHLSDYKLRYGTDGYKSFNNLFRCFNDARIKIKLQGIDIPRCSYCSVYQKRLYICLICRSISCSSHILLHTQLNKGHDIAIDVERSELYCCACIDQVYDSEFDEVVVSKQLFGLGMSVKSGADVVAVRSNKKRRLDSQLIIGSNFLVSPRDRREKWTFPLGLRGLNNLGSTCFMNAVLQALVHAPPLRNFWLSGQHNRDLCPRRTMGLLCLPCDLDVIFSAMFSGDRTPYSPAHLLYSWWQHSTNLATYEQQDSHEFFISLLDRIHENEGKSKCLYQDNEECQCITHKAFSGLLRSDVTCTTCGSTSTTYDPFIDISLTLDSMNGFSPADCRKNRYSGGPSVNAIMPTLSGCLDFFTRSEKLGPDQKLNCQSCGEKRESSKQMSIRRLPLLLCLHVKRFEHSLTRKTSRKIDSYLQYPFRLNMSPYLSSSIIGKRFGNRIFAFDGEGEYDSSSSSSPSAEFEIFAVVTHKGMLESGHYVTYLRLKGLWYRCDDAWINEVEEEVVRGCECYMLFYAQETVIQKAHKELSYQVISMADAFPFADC

Binder	binding
SGF11, endogenous in Arabidopsis cell culture (protein, UniProt Q94BV2 1-181) MSGAEDNKSSHAQLSSQIFLDLVDSVIADVASECHRVARLGLDRDLDIVEEELRLSVEARAKIADPSNNLETNTKYVVDIFGQTHPPVASEVFNCMNCGRQIVAGRFAPHLEKCMGKGRKARAKTTRSTTAAQNRNARRSPNPRYSPYPNSASENQLASGSPGVAGEDCSNFTVRENVKGD	binds
DET1, endogenous in Arabidopsis cell culture (protein, UniProt P48732 1-543) MFTSGNVTARVFERQIRTPPPGASVNRARHFYENLVPSYTLYDVESPDHCFRKFTEDGLFLISFSRNHQELIVYRPSWLTYSTTDDSTTTLPPLPRRASKFDSFFTQLYSVNLASSNELICKDFFLYHQTRRFGLFATSTAQIHDSSSPSNDAVPGVPSIDKITFVLLRLDDGVVLDERVFLHDFVNLAHNMGVFLYDDLLAILSLRYQRIHLLQIRDSGHLVDARAIGYFCREDDELFLNSSSQAMMSQDKSKQQSLSGSKEDDTGENGLRHSLSQPSGSNSFLSGVKQRLLSFIFREIWNEESDNVMRVQSLKKKFYFHFQDYVDLIIWKVQFLDRQHLLIKFGSVDGGVTRSADHHPAFFAVYNMETTDIVAFYQNSAEDLYQLFEQFSDHFTVSSSTPFMNFVTSHSNNVYALEQLKYTKNKSNSFSQFVKKMLLSLPFSCQSQSPSPYFDQSLFRFDEKLISAADRHRQSSDNPIKFISRRQPQTLKFKIKPGPECGTADGRSKKICSFLFHPHLPLAISIQQTLFMPPSVVNIHFRR	no binding
DDA1, endogenous in Arabidopsis cell culture (protein, UniProt Q9FFS4 1-101) MASILGDLPSFDPHNFSQHRPSDPSNPSKMVPTTYRPTHNRTLPPPDQVITTEVKNILIRSFYQRAEEKLRPKRPATDHLAAEHVNKHFRAASSSSSTQGL	no binding
